The nature of this experiment: qHTS Assay to Find Inhibitors of Chronic Active B-Cell Receptor Signaling. Conditions: ABC-DLBCL IkBa-CBG/CBR reporter, luminescence ratio (green luciferase fused to IkBa over red control in TMD8 lymphoma cells), 4 h. The method, boiled down: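 Doxycycline induced both beetle luciferases in TMD8 lymphoma cells; IKK-driven degradation limits the IkappaBalpha-fused green signal, while red luminescence normalises for cell number and nonspecific effects. Compounds tested up to 46 uM, 4 hrs.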

The mark [1] stands for this setting: measured here: CBR red luminescence, cell number.
Where [2] appears, read: measured here: IkBa-CBG green luminescence.

This is one part of the list. These are further read-outs of the screen, such as a control signal, another cell line or another target. No call is given for them. Compounds called inactive in the main read-out are mostly missing here. Potencies come from curve fits of mixed quality, noted in brackets.

In PubChem BioAssay AID493014 (National Center for Advancing Translational Sciences (NCATS), 2011) one finds AC50 data, which are given here for 40 molecules.

In general, AC50 refers to the concentration giving half of the maximal activity seen. For `Cn1c(=O)c2c(nc(Br)n2CCSc2nc3ccccc3o2)n(C)c1=O`, the AC50 under setting [1] was 35.5 µM [falling, partial curve, poor fit].

As for `C/C(=C\c1ccc(C)o1)C(=O)c1c(C)cc(C)[nH]c1=O`, the AC50 under setting [1] is 35.5 µM [falling, single point].

For the molecule `CCCCCn1nc(C)c(/C=N\NC(=O)c2cc(C)oc2C)c1C`, the AC50 under setting [1] is 20.6 µM [falling, partial curve].

On to `CC(C)n1c(SCC(N)=O)nc2c1c(=O)[nH]c(=O)n2C`, for which the AC50 under setting [1] was 10 µM [rising, partial curve, poor fit].

In the case of `CCn1c(CSc2nc3ccccc3s2)nc2ccccc21`, under setting [1], the concentration at half-maximal activity (AC50) is 2.59 µM [rising, single point].

On to `Clc1ccccc1C1=Nn2c(nnc2-c2ccco2)SC1`, for which, under setting [1], the concentration at half-maximal activity (AC50) is 0.355 µM [rising, full curve, poor fit].

For the molecule `O=C(CCSCc1ccccc1F)NCCc1ccccc1`, under setting [1], the half-maximal activity concentration (AC50) is 6.31 µM [rising, partial curve, poor fit].

As for `O=C(c1cccs1)N1N=C(c2ccc(O)cc2)CC1c1ccccc1` (configuration not stated), under setting [1], the AC50 was 20.6 µM [falling, partial curve].

Regarding `C/C(=N/NC(=O)C1CCN(S(=O)(=O)c2ccc(C)cc2)CC1)c1cccc([N+](=O)[O-])c1`, the AC50 under setting [1] is 6.51 µM [rising, single point].

For `CCCc1nc(NC(=O)c2ccccc2)nc(NC(=O)c2ccccc2)n1`, under setting [1], the AC50 is 0.794 µM [falling, full curve, poor fit].

With `Cc1ccc2c(CN(C)Cc3ccccc3)cc(=O)oc2c1C`, the half-maximal activity concentration (AC50) under setting [1] is 17.8 µM [falling, partial curve].

On to `Cc1c(C(=O)N(C)c2ccccc2Cl)cnn1-c1ccccc1`, for which the concentration at half-maximal activity (AC50) under setting [1] is 0.794 µM [rising, full curve, poor fit].

As for `COc1ccc(-c2nc(-c3cccs3)no2)cc1`, the AC50 under setting [1] was 10 µM [falling, single point].

On to `Cc1ccc(N(C(=O)Cc2c[nH]c3ccccc23)C(C(=O)NC2CCCCC2)c2ccco2)cc1` (configuration not stated), for which, under setting [1], the AC50 is 18.4 µM [falling, partial curve, poor fit].

As for `Cc1cc(NC(=S)N(Cc2cccc(Br)c2)CC2CCC(C(=O)O)CC2)ccc1Cl` (configuration not stated), the AC50 under setting [1] was 2.82 µM [falling, full curve].

Consider `CCn1c2ccccc2c2nc3cc(OC)c(OC)cc3nc21`, for which the concentration at half-maximal activity (AC50) under setting [1] is 4.47 µM [rising, full curve].

Take `COc1cc(/C=N/N=C(\N)c2nonc2N)cc(OC)c1OC`: under setting [1], the concentration at half-maximal activity (AC50) is 3.55 µM [rising, partial curve, poor fit].

`O=[N+]([O-])c1cc(F)c(N2CCOCC2)cc1N1CCCCC1`: the AC50 under setting [1] was 15.8 µM [rising, partial curve, poor fit].

For the molecule `CCOC(=O)CCCNC(=O)COC(=O)c1cc(C)cc(C)c1`, the AC50 under setting [1] is 25.9 µM [falling, single point].

As to `CCc1ccc(-n2nnnc2SCC(=O)NNC(=O)c2ccco2)cc1`, the AC50 under setting [1] was 35.5 µM [rising, single point].

In the case of `CCOC(=O)c1ccc(N2C(=O)C(CC(=O)NC)N(CCc3ccc(OC)c(OC)c3)C2=S)cc1` (configuration not stated), the AC50 under setting [1] is 11.2 µM [falling, partial curve].

On to `CCOc1ccc(-c2ccc(SC)nn2)cc1`, for which the AC50 under setting [1] was 3.98 µM [falling, full curve].

`C#CCOCCOCCOCCNc1nc(N2CCN(C(=O)CCCCCCCCCCNC(=O)Cn3cc(C[C@@H](C)O)nn3)CC2)nc(N2CCN(C(=O)CCCCCCCCCCNC(=O)[C@@H](CCSC)n3cc(CCO)nn3)CC2)n1`: under setting [1], the AC50 was 9.2 µM [rising, partial curve].

`Nc1cc2nn(-c3ccccc3)nc2cc1Cl`: the AC50 under setting [1] was 11.2 µM [falling, single point].

For the molecule `CCCc1cc(-c2n[nH]c(C(=O)OCC)c2-c2cscn2)c(O)cc1O`, under setting [1], the AC50 is 0.282 µM [falling, full curve].

Consider `Cc1cc(C)cc(NC(=O)c2ccc(N3C(=O)C4CCCCC4C3=O)cc2)c1` (configuration not stated), for which the AC50 under setting [1] is 11.2 µM [falling, partial curve, poor fit].

For `COc1cccc2c1C(CO)N1C(C#N)C3CC(C(=O)O)C(C1C2)N3C` (configuration not stated), the half-maximal activity concentration (AC50) under setting [1] was 1.41 µM [falling, full curve] and the AC50 under setting [2] is 0.355 µM [rising, full curve, poor fit].

Turning to `CCn1c(=O)c(C(=O)Nc2ccccc2S(N)(=O)=O)c(O)c2ccccc21`, the concentration at half-maximal activity (AC50) under setting [1] was 5.01 µM [falling, partial curve].

Regarding `COc1cc(C(=O)N2CCN(c3cc(Cl)ccc3Cl)CC2)cc(OC)c1OC`, the half-maximal activity concentration (AC50) under setting [2] was 0.92 µM [falling, full curve].

As for `O=C(N1CCCCC1)N1CCN(C(=O)N2CCCCC2)CC1`, the half-maximal activity concentration (AC50) under setting [1] is 3.98 µM [rising, full curve, poor fit].

With `CC(C)c1ccc(NC(=S)N2CCCC2)cc1`, under setting [1], the AC50 was 10 µM [rising, partial curve].

In the case of `O=C1CC(N(CCc2ccccc2)C(=S)Nc2ccccc2)C(=O)N1c1ccccc1` (configuration not stated), the AC50 under setting [1] was 29.1 µM [falling, single point].

In the case of `CCOC(=O)c1sc2nc(CC(=O)OC)nc(NCC(=O)OC)c2c1C`, the concentration at half-maximal activity (AC50) under setting [1] is 0.282 µM [falling, full curve, poor fit].

Take `CCC1CCCN1Cn1cnc2c([nH]c3ccc(Cl)cc32)c1=O` (configuration not stated): under setting [1], the concentration at half-maximal activity (AC50) was 8.2 µM [falling, partial curve, poor fit].

Take `O=C(Nc1scc(-c2cccs2)c1C(=O)O)c1cccs1`: the half-maximal activity concentration (AC50) under setting [1] is 17.8 µM [falling, single point].

For the molecule `CCCn1cnc2c(sc3nc4c(cc32)CSC(C)(C)C4)c1=O`, the half-maximal activity concentration (AC50) under setting [1] was 29.1 µM [rising, single point].

For the molecule `Cc1onc(-c2ccccc2)c1C(=O)N/N=C/c1c[nH]c2ccccc12`, the AC50 under setting [1] was 0.631 µM [falling, full curve, poor fit] and the AC50 under setting [2] is 3.98 µM [rising, partial curve, poor fit].

With `C=C1CCC[C@]2(C)C[C@H]3OC(=O)C(CNCCN(CC)CC)[C@H]3CC12` (some centres not stated), the AC50 under setting [1] is 15.8 µM [falling, partial curve].

Regarding `CNC(=O)NC(=O)C(C)Oc1ccccc1F` (configuration not stated), the concentration at half-maximal activity (AC50) under setting [1] was 35.5 µM [falling, single point].

As to `CCSc1nnc(NC(=O)COc2ccccc2[N+](=O)[O-])s1`, the AC50 under setting [1] was 28.2 µM [falling, single point].
